Consider two molecules from patent US20040139485A1.

No constants are given. Whether binding was seen depends on the method and setting. For some assays here: In cells and extracts the contact can be indirect. Some entries that bind do so weakly or less than the wild type. For some assays here: Sequences can lack the tags named with a protein.

Test [1] addresses T1, fragment of Rb (1.9 kb BsmHI-SalI fragment of Rb from pASRB2) cloned into pGBT9 (UniProt P06400).
T1 sequence (looked up): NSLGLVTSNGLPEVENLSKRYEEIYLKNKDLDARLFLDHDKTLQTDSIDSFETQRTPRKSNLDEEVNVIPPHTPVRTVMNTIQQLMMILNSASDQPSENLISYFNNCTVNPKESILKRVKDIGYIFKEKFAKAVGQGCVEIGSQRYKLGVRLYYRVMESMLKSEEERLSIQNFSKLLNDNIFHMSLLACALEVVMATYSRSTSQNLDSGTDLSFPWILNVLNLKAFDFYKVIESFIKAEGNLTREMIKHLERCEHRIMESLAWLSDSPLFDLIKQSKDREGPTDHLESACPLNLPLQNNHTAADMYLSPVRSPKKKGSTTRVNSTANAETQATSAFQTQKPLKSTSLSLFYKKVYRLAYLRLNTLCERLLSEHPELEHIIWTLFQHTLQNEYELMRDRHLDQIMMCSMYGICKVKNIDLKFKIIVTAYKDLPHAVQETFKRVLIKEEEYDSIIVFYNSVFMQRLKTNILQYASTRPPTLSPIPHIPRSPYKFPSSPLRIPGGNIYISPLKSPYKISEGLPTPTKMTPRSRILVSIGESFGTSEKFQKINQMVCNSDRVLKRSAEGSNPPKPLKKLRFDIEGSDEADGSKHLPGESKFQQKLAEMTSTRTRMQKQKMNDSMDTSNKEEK
Nature of the test: yeast two-hybrid (GAL4), X-gal staining and growth without histidine.

Test [2] has as its target T1, fragment of Rb (1.9 kb BsmHI-SalI fragment of Rb from pASRB2) cloned into pGBT9. Nature of the test: yeast two-hybrid (GAL4), growth on selective media and β-galactosidase.
Test [3] has as its target T2, pRb (retinoblastoma gene product), endogenous in rat liver epithelial cell extracts (rat) (UniProt P33568).
T2 sequence (looked up): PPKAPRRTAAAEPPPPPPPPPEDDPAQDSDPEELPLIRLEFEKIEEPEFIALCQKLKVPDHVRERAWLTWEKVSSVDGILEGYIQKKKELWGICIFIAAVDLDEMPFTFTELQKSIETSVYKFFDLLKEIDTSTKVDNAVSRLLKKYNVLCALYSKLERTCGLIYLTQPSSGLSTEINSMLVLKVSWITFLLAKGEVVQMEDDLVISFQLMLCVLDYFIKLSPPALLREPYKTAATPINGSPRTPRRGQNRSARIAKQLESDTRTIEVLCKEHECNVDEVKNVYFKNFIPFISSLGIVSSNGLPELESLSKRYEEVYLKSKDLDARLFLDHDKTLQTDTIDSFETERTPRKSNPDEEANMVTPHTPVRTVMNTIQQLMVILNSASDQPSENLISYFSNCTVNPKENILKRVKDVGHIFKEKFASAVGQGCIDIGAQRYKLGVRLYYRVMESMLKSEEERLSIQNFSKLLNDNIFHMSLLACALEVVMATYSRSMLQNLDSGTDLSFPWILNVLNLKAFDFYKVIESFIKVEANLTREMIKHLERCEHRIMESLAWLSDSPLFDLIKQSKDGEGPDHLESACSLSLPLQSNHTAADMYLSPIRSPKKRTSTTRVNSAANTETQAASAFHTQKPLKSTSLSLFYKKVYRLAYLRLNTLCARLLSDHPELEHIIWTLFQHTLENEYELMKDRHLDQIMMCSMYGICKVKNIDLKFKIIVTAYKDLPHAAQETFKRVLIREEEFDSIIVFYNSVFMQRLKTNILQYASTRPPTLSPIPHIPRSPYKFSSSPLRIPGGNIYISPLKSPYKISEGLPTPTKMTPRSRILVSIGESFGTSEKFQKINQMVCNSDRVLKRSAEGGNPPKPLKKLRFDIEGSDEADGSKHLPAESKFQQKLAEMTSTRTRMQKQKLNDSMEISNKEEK
Nature of the test: co-immunoprecipitation from RLE whole cell lysates with anti-BOG, anti-pRb, anti-p130 and anti-p107, Western blot. In general terms: Immunoblotting shows a protein as a band on a membrane.

Test [4] has as its target T2, pRb (retinoblastoma gene product), endogenous in rat liver epithelial cell extracts (rat). The test can be described thus: co-immunoprecipitation from whole cell lysates, Western blot.
The target is the same in test [5]. Nature of the test: co-immunoprecipitation from phi 13 whole cell extracts, Western blot.

B1: BOG, complete open reading frame, cloned into pGAD424 (GAL4 two-hybrid fusion) (protein, not shown: large carriers)
chain: MVSPTKAVIVPGNGGGDVATHGWYGWVRKGLEQIPGFQCLAKNMPDPITARESIWLPFMETELHCDEKTIIIGHSSGAIAAMRYAETHQVYALILVSAYTSDLGDENERASGYFSRPWQWEKIKANCPHIIQFGSTDDPFLPWKEQQEVADSWTPNCTNSLTVVTFRTQSSMN
Regarding B1, the binding entry in test [1] and in test [2] was “binds” each time.

B2: rat BOG (B5T Over-expressed Gene) protein (protein)
chain: B1 chain
As for B2, the binding entry in test [3], in test [4] and in test [5] was “binds” throughout.
